{"source": "paper PMC7822688", "about": "“W196 and the β-Hairpin Motif Modulate the Redox Switch of Conformation and the Biomolecular Interaction Network of the Apoptosis-Inducing Factor” (Oxidative Medicine and Cellular Longevity, 2021)", "tested_on": "dsDNA", "assay": "ITC binary interaction with dsDNA", "assay_type": "binding", "details": "oxidized hAIF∆1-101 titrated with 15-bp dsDNA, 25°C, pH 7.4", "experimental": "ITC assays were carried out using an Auto-iTC200 (MicroCal, Malvern-Panalytical, Malvern, UK) thermostated at 25 °C. Typically, […] protein partner and dsDNA samples—prepared as described below—were used to titrate ~10 μM hAIF∆1-101 variants. All solutions were degassed at 15°C for 1 min before each assay. A sequence of 2 μL injections of titrant solution every 150 s was programmed, and the stirring speed was set to 750 rpm. The association constant (Ka), the enthalpy of binding (ΔH), and the binding stoichiometry (N) were estimated through nonlinear least-squares regression of the experimental data employing a single-ligand binding site model implemented in Origin 7.0 (OriginLab, Northampton, MA). The dissociation constant (Kd), the free energy change (ΔG), and the entropy change (ΔS) were obtained from basic thermodynamic relationships.\nSince hAIF binds DNA unspecifically, a 0.5 mM dsDNA sample was prepared from 1 mM solutions of HPLC-purified forward and a reverse complementary 15-bp oligonucleotides (5′- GGT TAG TTA TGC GCG -3′; randomly designed) synthetized by Integrated DNA Technologies. The pair of oligonucleotides was mixed at an equimolar ratio and annealed by heating 1 min at 99°C and performing a 3 h temperature scanning from 95 to 25°C, decreasing 1°C each 3 min. 0.5 mM dsDNA stock solutions were obtained.", "data": [{"substance": "W196A: W196A site-directed mutant of hAIF∆1-101; ox = oxidized, CTC = charge transfer complex with NAD+", "values": [{"measurement": "-TΔS", "value": -22.0, "unit": "kcal/mol"}, {"measurement": "ΔG", "value": -6.9, "unit": "kcal/mol"}, {"measurement": "ΔH", "value": 15.0, "unit": "kcal/mol"}]}, {"substance": "W196Y: W196Y site-directed mutant of hAIF∆1-101; ox = oxidized, CTC = charge transfer complex with NAD+", "values": [{"measurement": "-TΔS", "value": -26.0, "unit": "kcal/mol"}, {"measurement": "ΔG", "value": -6.8, "unit": "kcal/mol"}, {"measurement": "ΔH", "value": 19.2, "unit": "kcal/mol"}]}, {"substance": "WT: wild-type human apoptosis-inducing factor, soluble form hAIF∆1-101 (UniProtKB O95831); ox = oxidized, CTC = NADH-reduced charge transfer complex", "values": [{"measurement": "-TΔS", "value": -12.4, "unit": "kcal/mol"}, {"measurement": "ΔG", "value": -7.6, "unit": "kcal/mol"}, {"measurement": "ΔH", "value": 4.8, "unit": "kcal/mol"}]}]}
